Paper doi:10.1101/2024.12.21.629933
Read-outs that look alike come from different tables or passages of the source. No constants are given. Whether binding was seen depends on the method and setting. Binding seen in cells or lysates may run through a third protein. These calls come from enrichment with a bait or labelling near it, and not all partners need be listed. Values belong to the molecule of their own block, whether it stands above or below them.

Sequences of proteins named here, by UniProt entry; tags and fusion partners are left off. Residues count along the entry.
UniProt P62330: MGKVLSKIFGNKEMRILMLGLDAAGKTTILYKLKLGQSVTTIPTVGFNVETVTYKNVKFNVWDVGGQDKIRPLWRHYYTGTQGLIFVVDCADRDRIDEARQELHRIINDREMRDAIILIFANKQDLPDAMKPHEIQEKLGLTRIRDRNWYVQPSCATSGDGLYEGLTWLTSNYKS
UniProt P16070, residues 21-742: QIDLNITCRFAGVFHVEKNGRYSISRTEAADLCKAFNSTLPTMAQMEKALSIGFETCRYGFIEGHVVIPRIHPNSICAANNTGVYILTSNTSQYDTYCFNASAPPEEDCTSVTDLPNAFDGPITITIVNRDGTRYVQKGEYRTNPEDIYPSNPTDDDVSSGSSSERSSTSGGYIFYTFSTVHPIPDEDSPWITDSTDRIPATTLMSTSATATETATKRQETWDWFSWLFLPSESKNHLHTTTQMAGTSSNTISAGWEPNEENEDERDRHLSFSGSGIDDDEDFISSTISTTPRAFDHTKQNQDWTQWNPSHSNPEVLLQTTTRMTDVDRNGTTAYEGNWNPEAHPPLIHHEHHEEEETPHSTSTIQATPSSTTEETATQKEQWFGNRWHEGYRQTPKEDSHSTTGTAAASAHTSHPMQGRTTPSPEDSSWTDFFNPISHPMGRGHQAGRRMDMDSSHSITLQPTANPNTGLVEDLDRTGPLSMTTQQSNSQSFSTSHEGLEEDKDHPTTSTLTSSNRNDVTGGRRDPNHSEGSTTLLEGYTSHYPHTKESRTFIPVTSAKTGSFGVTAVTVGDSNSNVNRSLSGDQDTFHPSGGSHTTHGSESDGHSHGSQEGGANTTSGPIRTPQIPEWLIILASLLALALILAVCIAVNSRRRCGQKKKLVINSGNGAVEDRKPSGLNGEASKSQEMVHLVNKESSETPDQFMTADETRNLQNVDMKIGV
UniProt P52630: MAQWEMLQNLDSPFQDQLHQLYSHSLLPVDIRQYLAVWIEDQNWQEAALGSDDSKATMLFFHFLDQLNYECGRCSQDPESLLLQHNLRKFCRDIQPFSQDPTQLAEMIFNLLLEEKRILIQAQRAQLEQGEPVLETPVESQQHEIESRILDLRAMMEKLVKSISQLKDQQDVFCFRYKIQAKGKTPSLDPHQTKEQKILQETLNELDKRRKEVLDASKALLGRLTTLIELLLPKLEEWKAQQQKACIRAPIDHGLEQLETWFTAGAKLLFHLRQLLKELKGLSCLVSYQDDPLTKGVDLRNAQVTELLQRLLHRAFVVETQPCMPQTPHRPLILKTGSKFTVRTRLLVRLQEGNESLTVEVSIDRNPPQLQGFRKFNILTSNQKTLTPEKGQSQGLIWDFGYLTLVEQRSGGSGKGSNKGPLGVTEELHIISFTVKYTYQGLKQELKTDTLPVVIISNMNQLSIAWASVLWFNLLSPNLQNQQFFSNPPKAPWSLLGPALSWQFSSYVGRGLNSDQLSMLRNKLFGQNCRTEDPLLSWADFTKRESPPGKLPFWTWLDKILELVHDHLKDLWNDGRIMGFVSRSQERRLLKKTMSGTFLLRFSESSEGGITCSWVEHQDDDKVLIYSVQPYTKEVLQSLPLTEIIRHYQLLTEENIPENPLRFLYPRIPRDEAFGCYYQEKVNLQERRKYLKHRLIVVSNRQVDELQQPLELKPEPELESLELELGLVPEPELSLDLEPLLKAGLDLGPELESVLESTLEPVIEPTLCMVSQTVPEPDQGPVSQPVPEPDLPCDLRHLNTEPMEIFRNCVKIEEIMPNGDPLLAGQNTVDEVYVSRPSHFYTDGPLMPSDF

How the values were obtained:
Test in all cases: proximity labelling
[1] = biological target: EGFR-HaloTag (Flag-EGFR-HaloTag; full-length EGFR with an intracellular C-terminal HaloTag) (UniProt P00533)
[2] = biological target: Flag-EGFR (full-length epidermal growth factor receptor with an extracellular N-terminal Flag-tag) (UniProt P00533)
[3] = biological target: Flag-EGFR (full-length epidermal growth factor receptor with an extracellular N-terminal Flag-tag) (UniProt P00533); remark: listed apart in the source

binding [1]: binds
binding [2]: binds
Molecule: ADP-ribosylation factor ARF6 (from UniProt P62330 1-175)

binding [2]: binds
Molecule: CD44 (from UniProt P16070 21-742)

binding [2]: binds
Molecule: STAT2 (from UniProt P52630 1-851)

binding [1]: binds
binding [2]: binds
Molecule: integrin A2 (ITA2) (from UniProt P17301 30-1181)

binding [1]: binds
binding [2]: binds
Molecule: β-catenin (CTNNB) (from UniProt P35222 1-781)

binding [3]: binds
B1: Dynamin1 (DYN1) (protein, UniProt Q05193 1-864)
chain: MGNRGMEDLIPLVNRLQDAFSAIGQNADLDLPQIAVVGGQSAGKSSVLENFVGRDFLPRGSGIVTRRPLVLQLVNATTEYAEFLHCKGKKFTDFEEVRLEIEAETDRVTGTNKGISPVPINLRVYSPHVLNLTLVDLPGMTKVPVGDQPPDIEFQIRDMLMQFVTKENCLILAVSPANSDLANSDALKVAKEVDPQGQRTIGVITKLDLMDEGTDARDVLENKLLPLRRGYIGVVNRSQKDIDGKKDITAALAAERKFFLSHPSYRHLADRMGTPYLQKVLNQQLTNHIRDTLPGLRNKLQSQLLSIEKEVEEYKNFRPDDPARKTKALLQMVQQFAVDFEKRIEGSGDQIDTYELSGGARINRIFHERFPFELVKMEFDEKELRREISYAIKNIHGIRTGLFTPDMAFETIVKKQVKKIREPCLKCVDMVISELISTVRQCTKKLQQYPRLREEMERIVTTHIREREGRTKEQVMLLIDIELAYMNTNHEDFIGFANAQQRSNQMNKKKTSGNQDEILVIRKGWLTINNIGIMKGGSKEYWFVLTAENLSWYKDDEEKEKKYMLSVDNLKLRDVEKGFMSSKHIFALFNTEQRNVYKDYRQLELACETQEEVDSWKASFLRAGVYPERVGDKEKASETEENGSDSFMHSMDPQLERQVETIRNLVDSYMAIVNKTVRDLMPKTIMHLMINNTKEFIFSELLANLYSCGDQNTLMEESAEQAQRRDEMLRMYHALKEALSIIGDINTTTVSTPMPPPVDDSWLQVQSVPAGRRSPTSSPTPQRRAPAVPPARPGSRGPAPGPPPAGSALGGAPPVPSRPGASPDPFGPPPQVPSRPNRAPPGVPSRSGQASPSRPESPRPPFDL
